# Results of single-concentration screens

The values are deposited in ChEMBL (CHEMBL3988442, “University of Dundee, Small-Polar-MMV Screening Library” (2021)).

Results are given as percent effect.
The record does not define 0% and 100%; most values in the screen are far below 50% and negative numbers occur (in some assays of this library far below -100).
Compounds were drawn at random from those tested, without regard to their results.

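Growth of Mycobacterium tuberculosis over 4 days (cholesterol / DPPC medium with tyloxapol); the read-out is not stated. Compounds at 500 µM. Higher reads as more growth inhibition (inferred: compounds with an IC50 in retests scored well above the rest). About 18,000 compounds were tested under these conditions; 5% (about 900) showed 50% or more at least once.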

SMILES | Percent Effect
O=C1CN(Cc2ccc(F)c3cccnc23)CCN1 | -4.625
COCCNC(=O)C1CCN1S(=O)(=O)c1ccccc1 (centres undefined) | -15.52
NC(=O)CCc1nc(-c2cccnc2)no1 | -6.23
O=S(=O)(CCN1CCn2ccnc2C1)c1ccccc1 | 6.041
CC(C)(C)N1CCCN(C(=O)c2cc(Cl)c[nH]2)CC1 | 1.244
CC(C)N(C)S(=O)(=O)NCC(c1ccsc1)N(C)C (centres undefined) | 4.411
Cc1nn(C)cc1NC(=O)NC(C)c1ccccn1 (centres undefined) | 10.8
CC(=O)c1ccc(C(=O)NC2CCCCNC2=O)s1 (centres undefined) | -16.04
COc1ccncc1NC(=O)c1ccc2c(c1)OCO2 | -5.417
Cn1nc(CC2CC2)cc1N | 1.7
Nc1nc(-c2ccncc2Cl)ns1 | 7.924
Cc1cc(CN2CCn3ccnc3C2)no1 | -17.46
Cc1ccsc1CNC(=O)C(C)n1cncn1 (centres undefined) | -12.4
Cc1cc(N)n(CC(=O)N2CCOC(CCN)C2)n1 (centres undefined) | 9.892
CNC(=O)C1CN(C(=O)Nc2cccc(C)c2)CCO1 (centres undefined) | -4.911
CC(C)Cn1nnnc1SC(C)C#N (centres undefined) | 14.07
CC(C)(C#N)C(=O)Nc1ccc2c(c1)NC(=O)CO2 | 7.188
OCc1csc2nccn12 | 2.369
COc1cccc(S(=O)(=O)N2C[C@H](C3CC3)[C@@H](N)C2)c1 | 20.51
CCc1nccn1CCCn1cnnc1 | 5.25
O=C1CN(CCOc2ccc3ccccc3c2)CCN1 | 11.47
CCCNC(=O)c1ccc2snnc2c1 | 47.93
CC(Nc1nc2ccccc2o1)C(=O)N1CCOCC1 (centres undefined) | 38.59
CSC(C)C(=O)N1CCOC(C)(C)C1 (centres undefined) | 1.678
CCCc1cc(C(=O)NC(C)c2nncn2C)no1 (centres undefined) | 2.012
CSc1cccc(CN(C)C(=O)CNC2CC2)c1 | 47.63
Cc1c[nH]c(CNC(=O)CCc2cccnc2)n1 | 2.502
O=C(c1cnsn1)N1CCSCC1c1ccccc1 (centres undefined) | -16.51
Cc1csc(CNc2ccc(OCCO)nc2)n1 | -24.78
CC(=O)NC1CCN(Cc2cnc(N(C)C)nc2)C1 (centres undefined) | 1.153
CNC(=O)c1cc(OC2CCNC2)ccn1 (centres undefined) | 10.24
CNC(=O)N(Cc1ccco1)C1CCN(C)CC1 | -15.13
CS(=O)(=O)N1CCN(C(=O)c2ccccc2)C1 | 8.884
O=C(C(O)c1cc(Cl)cc(Cl)c1)N1CC[S+]([O-])CC1 (centres undefined) | 19.95
O=C1c2ccccc2CS(=O)(=O)N1Cc1ccccn1 | -8.596
CN(C)c1cc(CNC(=O)c2nccnc2N)ccn1 | -16.22
CCSc1nc2ccccc2c(=O)n1CCCO | 88.4
Cc1ccc2c(c1)nc(CN)n2C | 106.3
Cc1nccn1CCCN1C[C@H]2CC[C@@H](C1)[C@H]2N | 11.51
OCC1(O)CCc2ccccc21 (centres undefined) | 5.098
Cn1ccnc(Sc2nnnn2CC2CCCO2)c1=O (centres undefined) | 9.947
CC(C#N)N1CCN(c2nccs2)CC1 (centres undefined) | 4.946
NC(=O)CSc1nc(-c2ccc(Br)cc2)c[nH]1 | 109.9
COCCNc1ccc(C#N)cc1 | 62.16
O=c1c2ccsc2ncn1CCn1cncn1 | -9.925
CNC(=O)[C@H](C)NC(=O)OC(C)(C)C | -8.331

The last 6 entries again:

- Cn1ccnc(Sc2nnnn2CC2CCCO2)c1=O (centres undefined) | 9.947%
- CC(C#N)N1CCN(c2nccs2)CC1 (centres undefined) | 4.946%
- NC(=O)CSc1nc(-c2ccc(Br)cc2)c[nH]1 | 109.9%
- COCCNc1ccc(C#N)cc1 | 62.16%
- O=c1c2ccsc2ncn1CCn1cncn1 | -9.925%
- CNC(=O)[C@H](C)NC(=O)OC(C)(C)C | -8.331%